PubChem BioAssay AID1347423 (Functional Genomics Laboratory (NCATS/FGL), 2020)
About 210 (0.4%) of roughly 52,000 sequences were called active.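 How the source made its calls: active means gene whose silencing raises cell survival under the drug, median off-target-corrected z-score across its silencing RNAs 2 or more; inactive means the rest.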 Some of the results follow.

Assay: Resistance to Poly (ADP-Ribose) Polymerase inhibitor: Gene Identification via Genome-wide siRNA Screen
Details: mouse BRCA2 R2336H ES cells, olaparib, CellTiter-Glo viability; active compounds read high
Procedure, shortened: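 Mouse BRCA2 R2336H ES cells were reverse-transfected with siRNA (20 nM final), treated at 48 h with 500 nM olaparib, and read by CellTiter-Glo after 72 h. Scores: MAD-based z per siRNA, median per gene, seed off-target correction.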

Sequence	z-score
GGCAAAAAGUAUUCUGAAGTT against 4921529O18Rik	inactive: 0.884
GGUUACUCCUUUUUAUGUATT against Rex3	inactive: 0.138
CCUAUUGCUGCCCUCAAGATT against Irf2bp1	inactive: -2.17
GGUAGAGCGCAAGAAGGCATT against C78541	inactive: -1.89
GGCUGGUGUAAAAGACACGTT against BC047219	inactive: 1.58
GGUGUGCUGUGUAAGGGAGTT against Inpp5b	inactive: 1.39
GGAGUUACUGACUAAGAACTT against Prlpe	inactive: 0.319
GGCUAAAUAUGUGAUUAGUTT against Maob	inactive: 1.67
CGGGAUCUAUCCACUGAUGTT against BC011468	inactive: 0.00812
GGCAACUGUUGGAUUGAUUTT against Catnb	inactive: 0.86
CCUUGUAAGUGAGAUCCGATT against Olfr118	inactive: -0.695
CCAAAUGAAAUUAGUCCUCTT against Eif5	inactive: -1.09
GCUAACUGCUACUAAAAUATT against Ndph	inactive: -2.38
GGACCCAACCUCAAUGAAATT against Arfip2	inactive: 1.52
GGAGUUUUGAAUAACAGCUTT against Ntn3	inactive: 0.929
GGAUCUAGAAAUGGUUAAGTT against Evpl	inactive: -0.722
GGACUUAUGGCAUUAGAAUTT against Nup88	inactive: -2.73
GGUGAUUGAAGUUUGUGAGTT against D230025D16Rik	inactive: 0.387
GGUAUGCACUCACACCAGATT against Mus81	inactive: -1.78
GGACCCUGAAGGAGCUGAATT against Per2	inactive: -1.32
GGAACCAAUCGGGAUUUUGTT against B330016D10Rik	inactive: 0.0402
GUCUCAAGUGGACUGUGAGTT against Ngfa	inactive: -0.74
GGUCUUAGAUAUUUUAGGCTT against Pbef1	inactive: 0.398

Sequence	z-score
GGACAUGACAUUUUUACGCTT against Cyp4f16	inactive: 0.822
GGAGGAGGAAAAGACUUUUTT against Pdzk2	inactive: -0.907
GGCUGAGUUAUUUGUGACATT against Syt13	inactive: 0.13
GGGCUUUAAUUCACAGAGCTT against Ticam2	inactive: -0.653
GGUGGACAAGGAGAGGACUTT against H2-Q1	inactive: -0.31
GGGAAUCUGGAAGACACCATT against Hap1	inactive: 0.0223
CGACUUUAAUUCCAAUCCUTT against 1810014L12Rik	inactive: 0.192
GGUUACCUGAGGUCAGUAGTT against Ifi1	inactive: -2.31
GCCUAGACAAUGGUGACCUTT against Nsfl1c	inactive: -0.792
GGAUCAUUUCUGGUGAUAATT against Map3k8	inactive: -0.149
GCAAUAUGUAUGUUAGUCUTT against Olfr1241	inactive: 0.434
GCAACGUGUAUUUAAAGACTT against Nrd1	inactive: 0.769
GGUCUUUCAAUAAAGAGAATT against Supt5h	inactive: -0.0124
GGGUGAGCGACAGAUGUCATT against Plcz1	inactive: -2.37
GCUAGUCUUAUGGACCAGATT against Eaf2	inactive: -0.544
GGGAAUCAUUAACAGCUUGTT against Hectd2	inactive: -0.85
GGUCAAAGUAGGUAAAGAATT against Snx2	inactive: -0.783
CCAGAGAGAUACCUGAUCUTT against Tas2r113	inactive: -2.7
GGGACAUGAUUUUGAACUUTT against Pfkfb2	inactive: 0.845
CGAUCAUUAAGCAAGUGAUTT against D930038M13Rik	inactive: 0.00691
GGAACCUAGAAGUUUUCUATT against 1700081D17Rik	inactive: 0.79
GCACAUUCGAUAUGCAACATT against Cops3	inactive: -1.78
GGUGAGAAGACCAUUGAUUTT against Insr	inactive: 1.23

As entered above:
z-score with GGAUCUAGAAAUGGUUAAGTT against Evpl reads inactive: -0.722
z-score with GGUUACCUGAGGUCAGUAGTT against Ifi1 reads inactive: -2.31
z-score with GGAACCUAGAAGUUUUCUATT against 1700081D17Rik reads inactive: 0.79

Next part

Sequence	z-score
GGAAGUGUUCCGUUUUGCUTT against 6530402N02Rik	inactive: 1.89
GCUGUAAACCGAAUCAAAGTT against 2810403A07Rik	inactive: -0.388
GGUGGAAGCACAGAGUUGCTT against Prdm15	inactive: 2.19
GGCAGUGCAAGCCUUCAUGTT against Emp1	inactive: -0.0058
GGAUGGAGAGAUAAGAAAATT against 4933403M22Rik	inactive: -0.715
GGAACCAUGGACCUUAAUUTT against Rbm4	inactive: 0.0394
GCGCGAUCACAUUCUUUAGTT against 4921522P10Rik	inactive: 1.14
GGAACUUAACUAUUGCACUTT against Hs3st1	inactive: -0.0559
CCACAUUCCUCAUUCUGUATT against Vars2l	inactive: -0.0608
CCAAGGUAUGAAGAUAUUUTT against Rfpl4	inactive: 0.167
GGCUUCUUAUUGAUGUUGGTT against Asb13	inactive: 0.989
GGAAGAUCCGCUUCAACGUTT against 2310007B03Rik	inactive: 0.608
GGACUCUUGGAACUAUUCUTT against Kcnma3	inactive: 0.56
GGCUAAGAUAAGAAAUGCUTT against AI839562	inactive: 3.06
GGACAAAGAAUCCAAAAUATT against Etv6	inactive: -0.976
GCCUCAUUAGUUAAUAUUCTT against Ppp1r8	inactive: 1.13
GGUACUGUCCAAGAAGCCGTT against Ankmy2	inactive: 1.84
CCUAAUGUUUAGAUCCAUATT against Gcm2	inactive: 0.24
CCACGCAACUAUAAGCUGCTT against B3gat1	inactive: 1.71
GGAGCUGACCUAUCUCAAGTT against 4631426H08Rik	inactive: 1.11
GGUCAUGCAAGACAAGAUCTT against E430036I04Rik	inactive: -0.271
